doi:10.64898/2025.12.20.695697
Read-outs that look alike come from different tables or passages of the source. Results are given in words; binding and its absence hold for the method and conditions named. Binding seen in cells or lysates may run through a third protein. Some entries that bind do so weakly or less than the wild type. Tags and fused reporters may be left off the sequences shown.

By UniProt entry, the sequences of proteins in these tests, tags left out. Where a name states a change or a piece, a line headed by the entry shows the natural chain unless it says otherwise.
UniProt Q15382, whole entry: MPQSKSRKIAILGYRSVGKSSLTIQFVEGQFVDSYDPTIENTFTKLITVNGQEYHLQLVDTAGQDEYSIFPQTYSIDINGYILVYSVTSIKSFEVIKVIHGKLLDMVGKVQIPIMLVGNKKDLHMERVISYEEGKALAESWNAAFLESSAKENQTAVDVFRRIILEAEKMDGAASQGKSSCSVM
UniProt O75140, whole entry: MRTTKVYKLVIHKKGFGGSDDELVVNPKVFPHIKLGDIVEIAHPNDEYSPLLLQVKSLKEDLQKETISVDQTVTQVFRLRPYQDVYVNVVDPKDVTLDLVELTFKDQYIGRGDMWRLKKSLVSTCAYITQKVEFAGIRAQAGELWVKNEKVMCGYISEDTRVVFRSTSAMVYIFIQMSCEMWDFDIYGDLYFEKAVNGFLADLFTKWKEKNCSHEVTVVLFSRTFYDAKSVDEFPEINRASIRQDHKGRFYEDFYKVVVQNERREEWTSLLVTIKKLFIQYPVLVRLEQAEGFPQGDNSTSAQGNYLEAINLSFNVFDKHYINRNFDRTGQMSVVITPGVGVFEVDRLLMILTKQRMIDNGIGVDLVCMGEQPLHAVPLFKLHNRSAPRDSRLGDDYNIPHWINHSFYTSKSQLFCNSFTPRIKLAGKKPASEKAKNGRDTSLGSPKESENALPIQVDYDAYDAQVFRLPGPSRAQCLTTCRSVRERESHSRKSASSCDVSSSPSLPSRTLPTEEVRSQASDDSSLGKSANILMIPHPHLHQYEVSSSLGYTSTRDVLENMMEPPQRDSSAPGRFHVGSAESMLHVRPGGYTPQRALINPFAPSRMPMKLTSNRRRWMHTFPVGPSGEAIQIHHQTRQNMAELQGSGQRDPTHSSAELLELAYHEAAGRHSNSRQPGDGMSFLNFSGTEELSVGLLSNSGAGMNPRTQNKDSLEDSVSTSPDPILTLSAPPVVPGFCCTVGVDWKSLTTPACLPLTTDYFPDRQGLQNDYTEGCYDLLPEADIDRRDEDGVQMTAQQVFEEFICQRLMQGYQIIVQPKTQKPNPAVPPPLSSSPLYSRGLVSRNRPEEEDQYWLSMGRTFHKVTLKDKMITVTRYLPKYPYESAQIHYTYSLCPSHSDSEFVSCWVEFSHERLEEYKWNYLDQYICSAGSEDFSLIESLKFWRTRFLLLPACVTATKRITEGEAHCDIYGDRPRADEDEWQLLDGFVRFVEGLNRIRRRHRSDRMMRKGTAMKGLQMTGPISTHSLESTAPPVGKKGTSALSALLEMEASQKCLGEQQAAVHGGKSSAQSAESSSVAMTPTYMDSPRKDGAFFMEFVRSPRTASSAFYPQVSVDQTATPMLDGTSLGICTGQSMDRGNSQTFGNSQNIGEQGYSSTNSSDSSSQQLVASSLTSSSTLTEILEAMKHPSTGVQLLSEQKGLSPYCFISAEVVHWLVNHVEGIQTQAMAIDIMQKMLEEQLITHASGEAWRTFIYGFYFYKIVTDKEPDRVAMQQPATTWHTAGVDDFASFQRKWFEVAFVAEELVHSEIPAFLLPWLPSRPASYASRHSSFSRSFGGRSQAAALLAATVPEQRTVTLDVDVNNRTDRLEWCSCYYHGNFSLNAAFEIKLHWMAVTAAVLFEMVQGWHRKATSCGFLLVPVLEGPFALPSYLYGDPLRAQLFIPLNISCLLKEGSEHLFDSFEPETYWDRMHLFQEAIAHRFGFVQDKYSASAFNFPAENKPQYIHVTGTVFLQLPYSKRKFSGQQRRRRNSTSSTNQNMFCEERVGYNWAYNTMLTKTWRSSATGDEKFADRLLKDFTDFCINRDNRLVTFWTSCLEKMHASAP

Legend:
GST-Rheb (human) = GST-Rheb (human) (UniProt Q15382); assay: pull-down
FLAG-Rheb^S20N (human) [1] = molecular target: FLAG-Rheb^S20N (human) (UniProt Q15382); assay: co-IP
FLAG-Rheb (human) [2] = molecular target: FLAG-Rheb (human) (UniProt Q15382); assay: co-IP
FLAG-Rheb^C181S (human) = FLAG-Rheb^C181S (human) (UniProt Q15382); assay: co-IP
FLAG-Rheb^S20N (human) [3] = molecular target: FLAG-Rheb^S20N (human) (UniProt Q15382); assay: co-IP; remark: listed apart in the source
FLAG-Rheb^Q64L (human) = FLAG-Rheb^Q64L (human) (UniProt Q15382); assay: co-IP
FLAG-Rheb (human) [4] = molecular target: FLAG-Rheb (human) (UniProt Q15382); assay: co-IP; remark: listed apart in the source

binding (GST-Rheb (human))	binding (FLAG-Rheb^S20N (human) [1])	binding (FLAG-Rheb (human) [2])	binding (FLAG-Rheb^C181S (human))	binding (FLAG-Rheb^S20N (human) [3])	binding (FLAG-Rheb^Q64L (human))	binding (FLAG-Rheb (human) [4])	Molecule
no binding							HA-Depdc5 (from UniProt O75140 1-1603)
binds	binds	binds	binds weakly	binds	binds weakly	binds weakly	HA-Nprl2 (protein, UniProt Q8WTW4 1-380) MGSGCRIECIFFSEFHPTLGPKITYQVPEDFISRELFDTVQVYIITKPELQNKLITVTAMEKKLIGCPVCIEHKKYSRNALLFNLGFVCDAQAKTCALEPIVKKLAGYLTTLELESSFVSMEESKQKLVPIMTILLEELNASGRCTLPIDESNTIHLKVIEQRPDPPVAQEYDVPVFTKDKEDFFNSQWDLTTQQILPYIDGFRHIQKISAEADVELNLVRIAIQNLLYYGVVTLVSILQYSNVYCPTPKVQDLVDDKSLQEACLSYVTKQGHKRASLRDVFQLYCSLSPGTTVRDLIGRHPQQLQHVDERKLIQFGLMKNLIRRLQKYPVRVTREEQSHPARLYTGCHSYDEICCKTGMSYHELDERLENDPNIIICWK
binds		binds		binds		binds weakly	HA-Nprl3 (protein, UniProt Q12980 1-569) MRDNTSPISVILVSSGSRGNKLLFRYPFQRSQEHPASQTSKPRSRYAASNTGDHADEQDGDSRFSDVILATILATKSEMCGQKFELKIDNVRFVGHPTLLQHALGQISKTDPSPKREAPTMILFNVVFALRANADPSVINCLHNLSRRIATVLQHEERRCQYLTREAKLILALQDEVSAMADGNEGPQSPFHHILPKCKLARDLKEAYDSLCTSGVVRLHINSWLEVSFCLPHKIHYAASSLIPPEAIERSLKAIRPYHALLLLSDEKSLLGELPIDCSPALVRVIKTTSAVKNLQQLAQDADLALLQVFQLAAHLVYWGKAIIIYPLCENNVYMLSPNASVCLYSPLAEQFSHQFPSHDLPSVLAKFSLPVSLSEFRNPLAPAVQETQLIQMVVWMLQRRLLIQLHTYVCLMASPSEEEPRPREDDVPFTARVGGRSLSTPNALSFGSPTSSDDMTLTSPSMDNSSAELLPSGDSPLNQRMTENLLASLSEHERAAILSVPAAQNPEDLRMFARLLHYFRGRHHLEEIMYNENTRRSQLLMLFDKFRSVLVVTTHEDPVIAVFQALLP
